Hit rate of the full screen: of about 52,000 sequences, about 210 (0.4%) were called active.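 Rule for the calls: active = gene whose silencing raises cell survival under the drug, median off-target-corrected z-score across its silencing RNAs 2 or more; inactive = the rest.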 The list shows a part of the results.
Test: Resistance to Poly (ADP-Ribose) Polymerase inhibitor: Gene Identification via Genome-wide siRNA Screen
Conditions: mouse BRCA2 R2336H ES cells, olaparib, CellTiter-Glo viability; active compounds read high
Summary of the method: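 Mouse BRCA2 R2336H ES cells were reverse-transfected with siRNA (20 nM final), treated at 48 h with 500 nM olaparib, and read by CellTiter-Glo after 72 h. Scores: MAD-based z per siRNA, median per gene, seed off-target correction.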
In the case of CCAGUUUUCGACACAAUUCTT against Mcpt5, the z-score is reported as inactive: -2.35. For CGGACCCGAGUUCGAGAAATT against Cherp, the z-score was inactive: -0.219. In the case of GCAGCAUCCAAUAAAGGGATT against Car1, the z-score is reported as inactive: 0.694. With GUGCAUCUACAACAUCGGCTT against Plp2 the z-score was inactive: -0.493. In the case of “GCAGCAGUGCUUACUUAACTT against 2610528H13Rik”, the z-score is reported as inactive: 0.787. In the case of GCCAAUGCUUCCAUUACCATT against Abca17, the z-score is reported as inactive: -0.31. With GGACUUGUUAGCGCAUCUCTT against Psmb9 the z-score was inactive: 1.25. In the case of “GCUGAAGAUGGAGCCUUGUTT against 1700011A15Rik”, the z-score is reported as inactive: -1.49. With GGUCUACAGGCAUCAAUGATT against Nr5a1 the z-score was inactive: 0.16. In the case of “GGAGUUUUUGUGAGACAAATT against 2010011I20Rik”, the z-score is reported as inactive: -0.286. For GCAUCAUUUCUGGGAUGGGTT against Scrg1, the z-score was inactive: -1.42. With CCAUUGAUGUUUGAUCGGATT against Fndc4 the z-score was inactive: 3.01. With GGGUCAGAAUGUUUCCUUCTT against Olfr331 the z-score was inactive: -1.13. With GGGCUUUGACUUCAAGACUTT against Mat1a the z-score was inactive: -0.659. In the case of GGACAGGAUGAGUUUGACATT against Rhou, the z-score is reported as inactive: -1.47. With “GGUCAUACACUUCUGCACATT against C330006K01Rik” the z-score was inactive: 1.27. For CCACCCUGCACAGAAUCUATT against Ppp2r5c, the z-score was inactive: -0.415. In the case of CAUGUCAUGCACAAUAGUUTT against Cd200r4, the z-score is reported as inactive: -0.0561. For GGCUUUCACGCUUUGACAATT against Ap1m2, the z-score was inactive: 0.615. With GGGAUUGGAAGAGAAAUGGTT against Hsd11b1 the z-score was inactive: 0.0967. With GCGAAUGUGUGUAUUCUGGTT against MGC65590 the z-score was inactive: -1.5. In the case of GGGUAACUAACAUUAAUGGTT against Adam12, the z-score is reported as inactive: 1.73. In the case of CCUUCAUGUCUGCAUAUUUTT against Cth, the z-score is reported as inactive: -0.394. In the case of GGUUCUGCCCUAUUUGUCATT against Aes, the z-score is reported as inactive: 0.816. For GCUAAGAAAGUACAAACCATT against Tmpo, the z-score was inactive: -1.97. For GGAAAGCUUGAAUGUUGAGTT against Mup3, the z-score was inactive: -1.25. With “GGCCUUUUUACCUGUGCACTT against 2010319C14Rik” the z-score was inactive: -0.996. For “GGAGAGUGCAGUGAUUGCCTT against 8030451F13Rik”, the z-score was inactive: -0.7. In the case of CCCUACCUUGAACGAGUACTT against Apoa1, the z-score is reported as active: 0.773. In the case of GGCUGUUGAGUAUAUAUAUTT against Slc6a8, the z-score is reported as inactive: -0.543. With GCACACCAGAACUGCAGCUTT against Olfr967 the z-score was inactive: 2.06. In the case of “GGUAAUACCACCUCACCUUTT against B230312A22Rik”, the z-score is reported as inactive: -0.73. For GGCAUCUUCAUCAAGGAUUTT against Sf3a1, the z-score was inactive: -3.02. With CGUAGCUGUAAUUCUUCAGTT against Pcdhgb2 the z-score was inactive: -0.24. For GGGCUCUUAUGUGAACUUUTT against Lman2, the z-score was inactive: -0.285. With GUCUGAGAGGAUUGAAACUTT against Manbal the z-score was inactive: 0.895. In the case of GGACCUCCUGUUUUUAUUCTT against AW555814, the z-score is reported as inactive: 0.833. For “GCCUUUUUCAGACACUAAUTT against 1300012D20Rik”, the z-score was inactive: 1.61. With GCUCUGUAAUAUACUUGUATT against Gtf2i the z-score was inactive: -1.12. In the case of GCUCCUACUACUGCUUUGCTT against Crem, the z-score is reported as inactive: 0.342. For CGUGAUGGACAGUUUAGACTT against Cenpj, the z-score was inactive: -1.17. With GCCGAGGUAUCCCUUGUUUTT against Sestd1 the z-score was inactive: -1.39. In the case of GCAAACGAGCUAGUUGUAUTT against Olfr1137, the z-score is reported as inactive: -0.517. In the case of GCAUCGUUUGUGAGAAUUUTT against Perp, the z-score is reported as inactive: 0.171. In the case of GGCUCUUAGAUACACUUGUTT against Dnajc12, the z-score is reported as inactive: -0.533. In the case of GGUAAUGUAUUUCAGCUCCTT against Slc6a17, the z-score is reported as inactive: -0.911. With CCAAGUAAUUCCUACUACUTT against Olfr1100 the z-score was inactive: -2.26. For GGGAAGUUCGAGCCAAUGUTT against Batf, the z-score was inactive: -1.7. With “GGAAAACCUAAUAAGGUUCTT against 1700028P05Rik” the z-score was inactive: 0.784. With CCAUAAGUUUGAAGAAUCCTT against Glg1 the z-score was inactive: 0.604. With GGAGUUGGAGUUUAUAUUATT against Olfr846 the z-score was inactive: -0.114. In the case of CCGCUUCUCUAGUGAAUAATT against Uros, the z-score is reported as inactive: -1.84. For “GGCAAUCAAUUGGUAGGUATT against 6530402A20”, the z-score was inactive: -0.368. For GGUCAUUGUCAAAGUCAAGTT against Nut, the z-score was inactive: 0.288. In the case of GGUGUAUUUUGUGACUAUCTT against Ugt1a12, the z-score is reported as inactive: 1.53. In the case of CCCAAAAUGACAUAACAGATT against Pilra, the z-score is reported as inactive: -1.09. For “GGACAACAUAGCAAGAUUUTT against C920001D21Rik”, the z-score was inactive: -0.525. For GGAGCAGUUCCAUAUGUGCTT against Cap1, the z-score was inactive: 1.32. For CGGUGCUUGCUUCUAUGUGTT against Olfr642, the z-score was inactive: 0.523. For CCACCAUCGUUACGUACCATT against Itm1, the z-score was inactive: -0.827. For GCCCUAGCUUCGAUCUAUUTT against Tcf4, the z-score was inactive: 0.332. In the case of CCUCAAUAAAAUCCUGGUGTT against Olfr99, the z-score is reported as inactive: -2.04. In the case of GGAAGCCCUAAAAAAGCUGTT against Ciapin1, the z-score is reported as inactive: 0.0247. In the case of CCUUACUAUGGUUGUCCUGTT against Olfr38, the z-score is reported as inactive: 0.411. For “GCAGAUACGACGAAGAUCUTT against 1110049F12Rik”, the z-score was inactive: -0.421. In the case of GCAUCCUAGAGAAACUGUCTT against Unc50, the z-score is reported as inactive: 0.733. With GGAAAGAAACUGCAUCGAGTT against BC050811 the z-score was inactive: 0.206. For GGACCUAAACUGUCAGGAGTT against Eif3s4, the z-score was inactive: -2.67. For GGUAAGAGGAUGGACACAATT against Chst1, the z-score was inactive: -1.44. For “CGAGAACUUCAUCAAUCGCTT against 1700112C13Rik”, the z-score was inactive: 0.448. For GCAAGUUAACCAGACCCAATT against Mro, the z-score was inactive: -0.466. With GCUACCUUAUCAAGAAUGATT against Snap91 the z-score was inactive: 1.48. With CGAGAUAAACCUUAGUUCATT against Nudt12 the z-score was inactive: -0.0881. With GCUAUUUGUCCACAAGUUCTT against Rab2 the z-score was inactive: 0.44. In the case of “GGAUCCAGAAAGUCCAGAUTT against C330027I04Rik”, the z-score is reported as inactive: -0.246. With GGACCAUGCUUCGUAUACATT against Idh3b the z-score was inactive: -0.567. In the case of “GUGAUUUGAGAUAAUCUCCTT against 6330583I20Rik”, the z-score is reported as inactive: 1.33. With GCAGUAGCAUCCCAUUUGUTT against Ttr the z-score was inactive: -1.2. With GCUGACGUACCCAGUAUCCTT against Pik3r3 the z-score was inactive: -1.41. In the case of GGUAUACUGGUUGGAGGACTT against Slc22a8, the z-score is reported as inactive: 0.101. With GGGAUUUCUCGAAUGAAUGTT against Pgm1 the z-score was inactive: 2.68. In the case of GUCUACUUUGACCGUGAUGTT against Fthl17, the z-score is reported as inactive: 1.97. In the case of GGUUGUUAAAAAUGUGUCUTT against Ctdspl, the z-score is reported as inactive: 0.00853. For GGCUGUAGACAUUUUGUCUTT against Sds, the z-score was inactive: 1.14. With CCCACUAAGGAACAAAUUGTT against LOC541463 the z-score was inactive: 0.132. For “GGCCUUGUAAAUUAUGCAUTT against C130068N17Rik”, the z-score was inactive: 1.66. For GCAGACUAAAAUCACGACATT against Ednra, the z-score was inactive: 0.0416. For GGAGACCCACUACAUGACUTT against H2-M2, the z-score was inactive: -0.484. For GCAGAAGUGAUUGAUACACTT against Hars, the z-score was inactive: 1.07. In the case of “GGAUGGAGAGAACUACUUATT against C730027E14Rik”, the z-score is reported as inactive: 0.579. With GGCAGUCAGCUAAUGCUUATT against Pros1 the z-score was inactive: 1.76. For GCUGUUUAUAUUUCUUGCUTT against Olfr1393, the z-score was inactive: 1.09. For GGAGAACUCCUACAUGUCUTT against Irak1, the z-score was inactive: 1.94. With “GCAGGAUCCUGAAACCAUGTT against E130306I01Rik” the z-score was inactive: -0.00862. For GCAGAUCUUGACUUGUCCATT against Orc6l, the z-score was inactive: 0.319. In the case of “GCAGCAGUGUGGUGACUGUTT against 4933404M02Rik”, the z-score is reported as inactive: -2.21. In the case of GCCUUUUGGAAACUUGCCCTT against Bcat1, the z-score is reported as inactive: 0.102. In the case of GGUAUAGCCACAGGUACAUTT against Phxr5, the z-score is reported as inactive: 0.0664. With GGAAAUUUUUCGUAAGUUGTT against Ncor1 the z-score was inactive: -0.799. For GGAAAAUGUUGAAGUGGAATT against Ndufa5, the z-score was inactive: 0.54. For “GGUUACCCUUGAGAAGAACTT against 4430402O11Rik”, the z-score was inactive: 0.136. With GGGAGGACCUUGUGUAUCATT against BC055811 the z-score was inactive: -0.403. For GCCGUCUAAGUAUCAGAAATT against Abca14, the z-score was inactive: -0.753. For CCGCAUUCCAGAGGAUAACTT against Mgst1, the z-score was inactive: -0.635.

From PubChem BioAssay AID1347423 (Functional Genomics Laboratory (NCATS/FGL), 2020)
